The data set concerns the target CYP2C9 (Homo sapiens, UniProt P11712). Type of data set: biochemical.

By UniProt entry, the sequences of proteins in these tests, tags left out.
UniProt P11712, whole entry: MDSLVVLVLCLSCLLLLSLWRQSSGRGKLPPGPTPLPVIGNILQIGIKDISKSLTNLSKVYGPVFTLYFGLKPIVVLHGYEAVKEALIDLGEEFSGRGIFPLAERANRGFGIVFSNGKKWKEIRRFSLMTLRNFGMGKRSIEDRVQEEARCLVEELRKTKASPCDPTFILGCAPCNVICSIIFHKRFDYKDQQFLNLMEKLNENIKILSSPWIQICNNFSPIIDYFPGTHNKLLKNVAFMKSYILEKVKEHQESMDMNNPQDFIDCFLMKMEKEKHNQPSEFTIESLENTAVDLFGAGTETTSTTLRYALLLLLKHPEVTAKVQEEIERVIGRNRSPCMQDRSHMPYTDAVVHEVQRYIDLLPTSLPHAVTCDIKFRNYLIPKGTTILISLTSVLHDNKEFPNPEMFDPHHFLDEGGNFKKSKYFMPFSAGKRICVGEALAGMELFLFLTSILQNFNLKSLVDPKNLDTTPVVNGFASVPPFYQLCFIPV

Structures are written as SMILES.

Consider `Clc1ccc(CSC(Cn2ccnc2)c2ccc(Cl)cc2Cl)cc1` (centres unmarked) [sulconazole], for which the “Concentration-dependent inhibitory effect toward CYP2C9” value (0.1, 0.5, 1, 10 and 20 μmol/L, DDAM, Fig. 4B) is recorded as “significant inhibitory effect”. Also, the “Modulation of CYP2C9 activity in visual high-throughput screen” value (clinical drugs 10 μmol/L, DDAM 10 μmol/L, HLM, 96-well microplate) is on record as “strong inhibitors”.

The values above are taken from publication PMC9279627 (Acta Pharmaceutica Sinica. B, 2021).
